The data set addresses T1, His6-CENP-B DBD (Homo sapiens) (UniProt P07199).
T1 sequence (looked up): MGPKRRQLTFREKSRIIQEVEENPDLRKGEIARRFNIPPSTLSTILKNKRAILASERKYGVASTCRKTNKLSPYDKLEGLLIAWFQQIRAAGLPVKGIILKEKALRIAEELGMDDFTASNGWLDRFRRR
Kind of data set: pull-down. To be noted: preformed His6-DBD-DNA complex on Ni-NTA, used to capture CENP-A-H4; pull-down: 20 mM Tris-HCl pH 8.0, 300 mM NaCl, 60 mM imidazole, 0.3% Tween-20, 0.01 ug/ul BSA, 4 C, 60 min; recombinant protein; residues 1-129; protein details: His6.

For at least one entry, the source does not settle the construct or the ends of the probe. At least one verdict was read from the data and is not stated in words by the source. Tags and fusion partners may be left off the protein sequences shown.

For “GCCTTCGTTGGAAACGGGATT (double strand) [21-bp CENP-B box DNA]”, the binding result is “binds”.

The values are drawn from PMC4446444, “Stable complex formation of CENP-B with the CENP-A nucleosome”.
